{"source": "paper doi:10.1101/2025.03.16.643548", "binders": {"B1": {"name": "EatA lacking the DUF domain (residues 514 to 616 replaced by eight His residues) (enzyme, UniProt Q84GK0 57-513; Q84GK0 617-1364)", "chain": "ATVNADISYQTFRDFAENKGAFIVGASNINIYDKNGVLVGVLDKAPMPDFSSATMNTGTLPPGDHTLYSPQYVVTAKHVNGSDIMSFGHIQNNYTVVGENNHNSLDIKIRRLNKIVTEVAPAEISSVGAVNGAYQEGGRFKAFYRLGGGLQYIKDKNGNLTPVYTNGGFLTGGTISALSSYNNGQMITAPTGDIFNPANGPLANYLNKGDSGSPLFAYDSLDKKWVLVGVLSSGSEHGNNWVVTTQDFLHQQPKHDFDKTISYDSEKGSLQWRYNKNSGVGTLSQESVVWDMHGKKGGDLNAGKNLQFTGNNGEIILHDSIDQGAGYLQFFDNYTVTSLTDQTWTGGGIITEKGVNVLWQVNGVNDDNLHKVGEGTLTVNGKGVNNGGLKVGDGTVILNQRPDDNGHKQAFSSINISSGRATVILSDANQVNPDKISWGYRGGTLDLNGNNVNFTRLHHHHHHHHQPYMFHGQLNGYMDVNIHPLSGKDVLTLDGSVNLPEGVITKKSGTLIFQGHPVIHAGMTTSAGQSDWENRQFTMDKLRLDAATFHLSRNAHMQGDISAANGSTVILGSSRVFTDKNDGTGNAVSSVEGSSIATTAGDQSYYSGNVLLENHSSLEVRENFTGGIEAYDSSVSVTSQNAIFDHVGSFVNSSLLLEKGAKLTAQSGIFTNNTMKIKENASLTLTGIPSVGKPGYYSPVTSTTEGIHLGERASLSVKNMGYLSSNITAENSAAIINLGDSNATIGKTDSPLFSTLMRGYNAVLQGNIMGPQSSVNMNNALWHSDRNSELKELKANDSQIELGVRGHFAKLRVKELIASNSVFLVHANNSQADQLNVTDKLQGSNNTILVDFFNKAANGTNVTLITAPKGSDENTFKAGTQQIGFSNITPEIRTENTDTATQWVLTGYQSVADARASKIATDFMDSGYKSFLTEVNNLNKRMGDLRDSQGDAGGWARIMNGTGSGESGYRDNYTHVQIGADRKHELNGIDLFTGALLTYTDNNASSQAFSGKTKSLGGGVYASGLFESGAYFDLIGKYLHHDNRYTLNFASLGERSYTSHSLYAGAEIGYRYHMSENTWVEPQMELVYGSVSGKSFNWKDQGMQLSMKDKDYHPLIGRTGVDVGRAFSGDTWKVTVRAGLGYQFDLLANGETVLQDASGKKHFKGEKDSRMLMNVGTNVEVKDNMRFGLELEKSAFGRYNIDNSINANFRYYF"}}, "molecular_target": "MUC2C-NC (truncated MUC2 C-terminal protein from the VWCN domain to the cysteine-knot) (human)", "experiment": "cross-linking", "note": "No constants are given. Whether binding was seen depends on the method and setting. Sequences can lack the tags named with a protein.", "data": [{"binder": "B1", "values": [{"measurement": "binding", "value": "no binding"}]}]}
